Experimental data as given in PubChem BioAssay AID1487 (National Center for Advancing Translational Sciences (NCATS), 2009).
This is one part of the list. The main result of the screen is listed elsewhere. These columns were measured beside it and carry no call. Compounds called inactive in the main read-out are mostly missing here. The note in brackets gives the kind of curve behind each potency; many fits are weak.

Assay: qHTS Assay for Modulators of Lamin A Splicing
Details: HeLa LMNA splicing GFP/RFP minigene ratio, 48 h
Method in brief: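 Read-out is the ratio of GFP to DsRed2 object intensity, acquired by 488 nm laser-scanning cytometry on HeLa lamin A-EGFP minigene reporter cells. Compound incubation 48 hrs at 37 °C in Opti-MEM with 2% FBS; DMSO 0.5% final.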

[1] = measured here: RFP viability control channel
[2] = measured here: GFP splicing reporter channel

SMILES | AC50 [1] | AC50 [2]
O=C(NCCCN1CCN(c2cccc(Cl)c2)CC1)C1(S(=O)(=O)c2ccc(Cl)cc2)CC1 | 17.8 µM [rising, single point] | 
COc1ccccc1NC(=O)CSc1nnc(COc2ccc(Cl)cc2)n1Cc1ccco1 |  | 17.8 µM [rising, partial curve]
CCOC(=O)c1cccc(NC(=S)NCc2ccc(C)cc2)c1 | 1 µM [falling, partial curve, poor fit] | 
OCCCCNCc1ccc(OCc2ccccc2)cc1 |  | 6.31 µM [falling, single point]
COc1cc(CN(CCc2c(C)[nH]c3ccc(C)cc23)C(=S)NC(C)(C)C)cc(OC)c1OC | 14.1 µM [rising, partial curve, poor fit] | 
CCOC(=O)c1c(-c2cccc(C)c2)csc1NC(=O)c1c(-c2ccccc2)noc1C |  | 0.891 µM [falling, full curve]
CCOc1ccc(S(=O)(=O)Nc2cccnc2)cc1 | 20 µM [rising, partial curve] | 17.8 µM [rising, partial curve, poor fit]
Cc1ccc(NC(=O)c2cc(S(=O)(=O)N3CCC4(CC3)OCCO4)ccc2F)cc1 | 15.8 µM [rising, single point] | 
O=C(CN1CCN(c2ccccn2)CC1)Nc1ccc(Cl)c(C(F)(F)F)c1 | 35.5 µM [rising, partial curve] | 
COc1ccccc1N1CCN(c2ccc(Cl)nn2)CC1 | 0.00355 µM [falling, full curve, poor fit] | 0.00316 µM [falling, full curve, poor fit]
CCCCCCCn1ccc(=N)cc1 | 10 µM [rising, partial curve] | 
Cc1cc(/C=C(\C#N)C(=O)NCCc2c[nH]c3ccccc23)c(C)n1C | 11.2 µM [rising, single point] | 
O=C(CSCC(=O)N1CCN(c2ccccc2)CC1)Nc1nc(-c2ccc(Cl)s2)cs1 | 17.8 µM [rising, single point] | 
Cc1ccc(S(=O)(=O)/N=S(/c2ccccc2)C(C)C)cc1 (centres undefined) |  | 0.141 µM [rising, partial curve, poor fit]
Cc1cc2c(cc1S(=O)(=O)CCC(=O)N1CCCC(C)C1)OCC(=O)N2 (centres undefined) |  | 0.562 µM [rising, full curve, poor fit]
CCCCN(CCCNC(=O)c1ccc(Sc2ccc(Cl)cc2)c(NC(C)=O)c1)c1ccccc1 |  | 7.94 µM [falling, partial curve, poor fit]
Cc1ccc(NC(=O)CSCc2n[nH]c(=O)[nH]2)c(Br)c1 | 5.62 µM [falling, partial curve, poor fit] | 

2 compounds picked at random from the list so far:
SMILES | AC50 [1] | AC50 [2]
COc1ccccc1NC(=O)CSc1nnc(COc2ccc(Cl)cc2)n1Cc1ccco1 |  | 17.8 µM [rising, partial curve]
Cc1ccc(NC(=O)c2cc(S(=O)(=O)N3CCC4(CC3)OCCO4)ccc2F)cc1 | 15.8 µM [rising, single point] | 
